Assay results as given in PubChem BioAssay AID2533 (National Center for Advancing Translational Sciences (NCATS), 2010).
Inconclusive results, whose numbers are uncertain, are shown with a selection of clear calls. Potencies of inconclusive entries are doubtful fits and often do not repeat. Activity calls are given as the source filed them. The call rests on the fitted dose curve; in most records, active means well fitted activation curve with a large enough effect; inconclusive means small, poorly fitted or top-dose-only effect; inactive means flat fitted curve, though single readings scatter.

Protein sequences, listed by entry. Tags and fused reporters are not part of them.
UniProt P14618, whole entry, looked up: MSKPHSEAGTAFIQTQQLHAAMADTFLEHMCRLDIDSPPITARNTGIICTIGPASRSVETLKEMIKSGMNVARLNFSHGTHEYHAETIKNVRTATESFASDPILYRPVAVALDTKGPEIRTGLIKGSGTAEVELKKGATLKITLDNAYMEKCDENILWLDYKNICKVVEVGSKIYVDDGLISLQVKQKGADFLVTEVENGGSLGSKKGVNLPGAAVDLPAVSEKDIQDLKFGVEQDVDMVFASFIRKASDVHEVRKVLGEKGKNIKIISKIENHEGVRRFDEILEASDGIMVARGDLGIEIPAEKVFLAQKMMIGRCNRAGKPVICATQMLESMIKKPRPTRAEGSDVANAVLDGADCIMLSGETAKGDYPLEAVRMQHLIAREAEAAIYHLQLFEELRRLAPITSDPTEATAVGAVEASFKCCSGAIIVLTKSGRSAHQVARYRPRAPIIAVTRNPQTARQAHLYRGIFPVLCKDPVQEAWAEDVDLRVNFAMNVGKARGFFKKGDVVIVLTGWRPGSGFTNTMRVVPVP

Each compound was assayed against Pyruvate kinase PKM (Homo sapiens) (UniProt P14618) (assay: Confirmation Concentration-Response Assay for Activators of Human Muscle isoform 2 Pyruvate Kinase: for Probe SAR). Conditions: purified PKM2, ATP generation, Kinase-Glo luminescence; activity change, positive = activation: at 57.5 µM (top of the series).
Text: NIH Chemical Genomics Center [NCGC]
Matthew G. Vander Heiden, M.D., Ph.D. [Harvard Medical School, 77 Avenue Louis Pasteur, Boston, MA 02115]
Human pyruvate kinase muscle 2 (hPK-M2) enzyme was supplied as a highly purified (>95% pure) preparation from Harvard Medical School and assayed for its ability to generate ATP from ADP using phosphoenolpyruvate (PEP) as a substrate. ATP generation was detected in a coupled reaction by luciferase-mediated luminescence, an ATP-dependent process. […] The enzyme was assayed at an intermediate level of activity to screen for both inhibitors and activators.
NCGC Assay Protocol Summary:
Three uL of substrate mix (at r.t.) in assay buffer (50 mM Imidazole pH7.2, 50 mM KCl, 7 mM MgCl2, 0.01% Tween 20, 0.05% BSA) was dispensed into white solid bottom 1,536 well microtiter plates so that the final concentrations of substrates in the assay were 0.1 mM ADP and 0.5 mM PEP. 23 nL of compound were delivered by a pin tool and 1 uL of enzyme mix (final concentration of 0.1 nM) in assay buffer (4 degree Celsius) was added. Plates were incubated at room temperature for 1 hour. Two uL of detection mix (Kinase-Glo, Promega; at 4 degree Celsius protected from light) was added and luminescence read by a ViewLux (Perkin Elmer) at 1 second exposure/plate. Data were normalized to the uninhibited (column 3) and AC100 inhibition (no enzyme in column 2). To monitor activation, the first column contained a titration of the activator, NCGC00031955-03 (16-point 1:2 dilutions in duplicate starting at 57 uM) and the first 16 rows of column 4 contained 57 uM of NCGC00031955-03.
Further: nearly all actives have a fitted effect of over 60% in size.
Potency means the concentration at half of the fitted maximal effect.
Wherever activity change, positive = activation is given: % of control where 0% means no effect.

Compound | Potency | activity change, positive = activation
Cc1ccc2nc(-c3ccc(C)o3)c(Nc3ccccc3)n2c1 | inactive | –
Cc1ccc(NS(=O)(=O)c2ccc3c(c2)CCC(=O)N3)cc1C | active: 0.651 µM | –
N#Cc1ccc(NS(=O)(=O)c2ccc3c(c2)CCC(=O)N3)cc1 | inconclusive: 23.1 µM [rising, partial curve, poor fit] | –
O=S1(=O)N=C(Sc2ccc3c(c2)OCCO3)c2ccccc21 | inactive | –
Cc1ccc(NS(=O)(=O)c2cc3c(cc2-c2cn[nH]c2)NC(=O)CO3)cc1C | – | inconclusive: 34.9%
Cc1ccc(NS(=O)(=O)c2ccc3c(c2)CCCC(=O)N3)cc1C | inconclusive: 23.1 µM [rising, partial curve] | –
O=S1(=O)N=C(OCc2ccccc2)c2ccccc21 | inactive | –
Cc1ccc(NS(=O)(=O)c2ccc3c(ccn3C)c2)cc1C | inconclusive: 20.6 µM [rising, partial curve] | –
O=C1c2ccccc2C(=O)N1Cc1ccccn1 | inactive | –
Cc1ccc(N2C(=O)c3ccccc3C2=O)c(C)c1 | inactive | –
O=C1CCc2cc(S(=O)(=O)Nc3cccnc3)ccc2N1 | inconclusive: 23.1 µM [rising, partial curve, poor fit] | –
Cc1c(Cl)cccc1NS(=O)(=O)c1cc2c(cc1Cl)CCC(=O)N2 | inconclusive: 1.63 µM [rising, full curve] | –
O=C1CCc2cc(S(=O)(=O)Nc3ccc(Cl)c(Cl)c3)ccc2N1 | inconclusive: 7.3 µM [rising, full curve, poor fit] | –
COc1ccccc1N1C(=O)c2ccccc2C1=O | – | inconclusive: 44.5%
O=C1CCc2cc(S(=O)(=O)Nc3cccc(Oc4ccccc4)c3)ccc2N1 | inconclusive: 20.6 µM [rising, partial curve] | –
O=C1CCc2cc(S(=O)(=O)Nc3ccc4ncccc4c3)ccc2N1 | inactive | –
Cc1ccc2nc(-c3ccc(C)o3)c(NC3CCCC3)n2c1 | inactive | –
COc1ccccc1NS(=O)(=O)c1ccc2c(c1)CCC(=O)N2 | active: 20.6 µM | –
O=C1CCc2cc(S(=O)(=O)NCc3ccccc3)ccc2N1 | inconclusive: 20.6 µM [rising, partial curve] | –
CC(=O)N1CCCc2cc(S(=O)(=O)Nc3ccc(C)c(C)c3)ccc21 | inconclusive: 20.6 µM [rising, partial curve] | –

Compound | Potency | activity change, positive = activation
Cc1cccc(OC2=NS(=O)(=O)c3ccccc32)c1 | inactive | –
O=C1CCc2cc(S(=O)(=O)Nc3ccc(Cl)c(Cl)c3)c(F)cc2N1 | inconclusive: 2.91 µM [rising, full curve] | –
Cc1ccc2nc(-c3ccco3)c(Nc3ccccc3)n2c1 | inactive | –
COc1ccc(NS(=O)(=O)c2ccccc2C(=O)O)cc1 | inactive | –
Cc1ccc(Cl)cc1NS(=O)(=O)c1cc2c(cc1F)NC(=O)CC2 | inconclusive: 16.3 µM [rising, partial curve] | –
CC(C)Nc1cccc(S(=O)(=O)N2CCCN(S(=O)(=O)c3ccc4c(c3)OCCO4)CC2)c1 | inconclusive: 0.517 µM [rising, full curve] | –
Cc1ccc(NS(=O)(=O)c2cc3c(cc2Cl)CCC(=O)N3)cc1Cl | inconclusive: 0.73 µM [rising, full curve] | –
Cc1ccc2nc(-c3ccncc3)c(Nc3ccccc3)n2c1 | inconclusive: 8.19 µM [rising, partial curve] | –
CN(C)c1cccc(S(=O)(=O)N2CCCN(S(=O)(=O)c3ccc4c(c3)OCCO4)CC2)c1 | active: 0.163 µM | –
Cc1ccc(NS(=O)(=O)c2ccc3c(c2)NC(=O)CO3)cc1C | active: 20.6 µM | –
N#Cc1cccc(NS(=O)(=O)c2ccc3c(c2)CCC(=O)N3)c1 | inconclusive: 14.6 µM [rising, partial curve] | –
Cc1ccc(NS(=O)(=O)c2cc3c(cc2C)NC(=O)CO3)cc1C | active: 0.58 µM | –
COc1cc(N2C(=O)c3ccccc3C2=O)c2ncccc2c1 | inactive | –
Cc1ccc(NS(=O)(=O)c2cc3c(cc2F)NC(=O)CC3)cc1C | active: 0.73 µM | –
O=C1CCc2cc(S(=O)(=O)Nc3ccc(-c4ccccc4)cc3)ccc2N1 | inactive | –
O=C1c2ccccc2C(=O)N1c1ccc2ncccc2c1 | inactive | –
Cc1ccc(NS(=O)(=O)c2cc3c(cc2F)NC(=O)CC3)cc1Cl | inconclusive: 0.146 µM [rising, full curve] | –
COc1cccc(N2C(=O)c3ccccc3C2=O)c1 | inconclusive: 25.9 µM [rising, partial curve, poor fit] | –
Cc1ccc(NS(=O)(=O)c2ccc3[nH]c(=O)[nH]c3c2)cc1C | inconclusive: 13 µM [rising, full curve] | –
Cc1ccc(Cl)cc1NS(=O)(=O)c1cc2c(cc1Cl)CCC(=O)N2 | inconclusive: 5.8 µM [rising, partial curve] | –

One compound at a time, as listed above:
Cc1ccc(NS(=O)(=O)c2cc3c(cc2C)NC(=O)CO3)cc1C in the list: Potency: active: 0.58 µM
Cc1ccc(Cl)cc1NS(=O)(=O)c1cc2c(cc1Cl)CCC(=O)N2 in the list: Potency: inconclusive: 5.8 µM [rising, partial curve]
